Source: the supplement of paper PMC8728848
This is one part of the list.

Experiments:
Assay in all cases: glycan array binding signal (z-score within array); higher = stronger binding
Conditions in all cases: glycan notation: IUPAC condensed, linker removed
[1] = target: Neu5Ac(a2-3)Gal(b1-4)GlcNAc(b1-6)GalNAc
In short: (§1)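 Glycan array binding is given as a within-array Z-score, which can be read as non-binding when negative. The arrays, 3228 of them, came from the Consortium for Functional Glycomics database and were retained only where the protein sequence was available. Z-scores were averaged across arrays of the same protein sequence at different concentrations or buffers and across linkers.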

[2] = target: Neu5Ac(a2-3)Gal(b1-4)GlcNAc(b1-6)[Gal(b1-3)]GalNAc
In short: as §1

[3] = target: Neu5Ac(a2-3)Gal(b1-4)GlcNAc(b1-6)[Neu5Ac(a2-3)Gal(b1-3)]GalNAc
In short: as §1

[4] = target: Neu5Ac(a2-3)Gal(b1-4)GlcNAc6S
In short: as §1

[5] = target: Neu5Ac(a2-3)Gal(b1-4)[Fuc(a1-3)]GlcNAc
In short: as §1

[6] = target: Neu5Ac(a2-3)Gal(b1-4)[Fuc(a1-3)]GlcNAc(b1-2)Man
In short: as §1

[7] = target: Neu5Ac(a2-3)Gal(b1-4)[Fuc(a1-3)]GlcNAc(b1-3)Gal
In short: as §1

[8] = target: Neu5Ac(a2-3)Gal(b1-4)[Fuc(a1-3)]GlcNAc(b1-3)Gal(b1-4)GlcNAc
In short: as §1

[9] = target: Neu5Ac(a2-3)Gal(b1-4)[Fuc(a1-3)]GlcNAc(b1-3)Gal(b1-4)[Fuc(a1-3)]GlcNAc(b1-3)Gal(b1-4)[Fuc(a1-3)]GlcNAc
In short: as §1

[10] = target: Neu5Ac(a2-3)Gal(b1-4)[Fuc(a1-3)]GlcNAc(b1-3)GalNAc
In short: as §1

[11] = target: Neu5Ac(a2-3)Gal(b1-4)[Fuc(a1-3)]GlcNAc(b1-6)[Gal(b1-3)]GalNAc
In short: as §1

[12] = target: Neu5Ac(a2-3)Gal(b1-4)[Fuc(a1-3)]GlcNAc(b1-6)[Neu5Ac(a2-3)Gal(b1-3)]GalNAc
In short: as §1

[13] = target: Neu5Ac(a2-3)Gal(b1-4)[Fuc(a1-3)]GlcNAc6S
In short: as §1

[14] = target: Neu5Ac(a2-3)Gal6S(b1-4)GlcNAc
In short: as §1

[15] = target: Neu5Ac(a2-3)Gal6S(b1-4)[Fuc(a1-3)]GlcNAc
In short: as §1

[16] = target: Neu5Ac(a2-3)GalNAc
In short: as §1

[17] = target: Neu5Ac(a2-3)GalNAc(b1-4)GlcNAc
In short: as §1

[18] = target: Neu5Ac(a2-3)[GalNAc(b1-4)]Gal(b1-4)Glc
In short: as §1

[19] = target: Neu5Ac(a2-3)[GalNAc(b1-4)]Gal(b1-4)GlcNAc
In short: as §1

[20] = target: Neu5Ac(a2-3)[GalNAc(b1-4)]Gal(b1-4)GlcNAc(b1-3)GalNAc
In short: as §1

[21] = target: Neu5Ac(a2-3)[Neu5Ac(a2-6)]GalNAc
In short: as §1

[22] = target: Neu5Ac(a2-6)Gal
In short: as §1

[23] = target: Neu5Ac(a2-6)Gal(b1-3)GlcNAc(b1-3)[Gal(b1-4)GlcNAc(b1-6)]Gal(b1-4)Glc
In short: as §1

B1: B936 (Bifidobacterium sp) (protein)
chain: MKNWKKAIALVASAAALVSVAACGPSNAGGSSDSGKKTVGFVAVGPEGGFRTANEKDIQKAFEDAGFDLTYSPTQNNDQQKQIQAFNKFVNDEVDAIILSSTEDSGWDDSLKKAAEAEIPVFTVDRNVDVKDAEAKKAIVAHIGPSNVWCGEQAAEFVNKNFPDGANGFILEGPAGLSVVKDRGTGWGNKVASNVKVLESQSANWSTDEAKTVTAGLLDKYKSDNPQFIFAQNDEMGLGAAQAVDAAGLKGKVKIITIDGTKNALQALVDGDLSYVIEYNPIFGKETAQAVKDYLDGKTVEKDIEIESKTFDAASAKEALDNNTRAY
[1]
  glycan array binding signal (z-score): 0.205
[2]
  glycan array binding signal (z-score): -0.468
[3]
  glycan array binding signal (z-score): -0.773
[4]
  glycan array binding signal (z-score): -0.108
[5]
  glycan array binding signal (z-score): -0.682
[6]
  glycan array binding signal (z-score): -0.775
[7]
  glycan array binding signal (z-score): -0.642
[8]
  glycan array binding signal (z-score): 0.579
[9]
  glycan array binding signal (z-score): 1.11
[10]
  glycan array binding signal (z-score): 0.865
[11]
  glycan array binding signal (z-score): 0.094
[12]
  glycan array binding signal (z-score): 1.08
[13]
  glycan array binding signal (z-score): 0.03
[14]
  glycan array binding signal (z-score): -0.525
[15]
  glycan array binding signal (z-score): -0.317
[16]
  glycan array binding signal (z-score): -0.289
[17]
  glycan array binding signal (z-score): -0.107
[18]
  glycan array binding signal (z-score): -0.48
[19]
  glycan array binding signal (z-score): 0.221
[20]
  glycan array binding signal (z-score): -0.056
[21]
  glycan array binding signal (z-score): -0.232
[22]
  glycan array binding signal (z-score): 0.359
[23]
  glycan array binding signal (z-score): -0.232
